# Results taken from US20210177941A1, “COMPOSITIONS FOR CHANGING BODY COMPOSITION, METHODS OF USE, AND METHODS OF TREATMENT” (Board of Supervisors of Louisiana State University and …, priority 2014, published 2021).
# Some of these results come from one statement about several compounds together.
# System: UCP1
# Experiment: UCP1 protein expression in BAT
# Format: in vivo, mice
# Conditions: albuterol groups, after 4-weeks of therapy, p<0.01
compound,measurement,value
CC(C)(C)NCC(O)c1ccc(O)c(CO)c1 (stereo not shown) [albuterol],increase in UCP1 protein expression relative to PBS-controls,greater than 6 fold
